Results are given in words; binding and its absence hold for the method and conditions named. Binding can be weak; no strength is given. Tags and fused reporters may be left off the sequences shown.
Target: recombinant human kallikrein 7 (hK7) (human) (UniProt P49862)
Test: SDS-stable serpin-protease complex formation (SDS-PAGE with silver staining, Western blot, MALDI-TOF MS); hK7 and vaspin or vaspin variants incubated in solution at RT (molar ratio 1:1.4 for silver-stained gels, 1:1 for Western blot, vaspin:hK7 5:1 for 24 h for MS); samples over 5 min to 24 h; complexes stable under reducing conditions; both purified

By UniProt entry, the sequences of proteins in these tests, tags left out. Where a name states a change or a piece, a line headed by the entry shows the natural chain unless it says otherwise.
UniProt P49862: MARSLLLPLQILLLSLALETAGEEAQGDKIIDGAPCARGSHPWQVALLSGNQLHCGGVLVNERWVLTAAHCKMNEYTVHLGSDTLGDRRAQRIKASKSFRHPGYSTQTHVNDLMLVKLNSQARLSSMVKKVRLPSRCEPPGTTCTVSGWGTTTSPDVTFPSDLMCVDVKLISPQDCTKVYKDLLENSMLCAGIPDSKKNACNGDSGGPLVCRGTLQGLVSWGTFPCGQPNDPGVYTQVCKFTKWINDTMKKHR

binding: binds
B1: recombinant human vaspin (visceral adipose tissue-derived serpin; serpinA12), 10×His fusion protein (protein, UniProt Q8IW75 22-414)
chain: KPSFSPRNYKALSEVQGWKQRMAAKELARQNMDLGFKLLKKLAFYNPGRNIFLSPLSISTAFSMLCLGAQDSTLDEIKQGFNFRKMPEKDLHEGFHYIIHELTQKTQDLKLSIGNTLFIDQRLQPQRKFLEDAKNFYSAETILTNFQNLEMAQKQINDFISQKTHGKINNLIENIDPGTVMLLANYIFFRARWKHEFDPNVTKEEDFFLEKNSSVKVPMMFRSGIYQVGYDDKLSCTILEIPYQKNITAIFILPDEGKLKHLEKGLQVDTFSRWKTLLSRRVVDVSVPRLHMTGTFDLKKTLSYIGVSKIFEEHGDLTKIAPHRSLKVGEAVHKAELKMDERGTEGAAGTGAQTLPMETPLVVKIDKPYLLLIYSEKIPSVLFLGKIVNPIGK

Source: PMC3689916
